# Source: paper PMC10721182
# B1: occludin (protein, UniProt Q16625 1-522)
# chain: MSSRPLESPPPYRPDEFKPNHYAPSNDIYGGEMHVRPMLSQPAYSFYPEDEILHFYKWTSPPGVIRILSMLIIVMCIAIFACVASTLAWDRGYGTSLLGGSVGYPYGGSGFGSYGSGYGYGYGYGYGYGGYTDPRAAKGFMLAMAAFCFIAALVIFVTSVIRSEMSRTRRYYLSVIIVSAILGIMVFIATIVYIMGVNPTAQSSGSLYGSQIYALCNQFYTPAATGLYVDQYLYHYCVVDPQEAIAIVLGFMIIVAFALIIFFAVKTRRKMDRYDKSNILWDKEHIYDEQPPNVEEWVKNVSAGTQDVPSPPSDYVERVDSPMAYSSNGKVNDKRFYPESSYKSTPVPEVVQELPLTSPVDDFRQPRYSSGGNFETPSKRAPAKGRAGRSKRTEQDHYETDYTTGGESCDELEEDWIREYPPITSDQQRQLYKRNFDTGLQEYKSLQSELDEINKELSRLDKELDDYREESEEYMAAADEYNRLKQVKGSADYKSKKNHCKQLKSKLSHIKKMVGDYDRQKT
# Molecular target: Recombinant Trichinella spiralis cathepsin L domains (rTsCatL2) (Trichinella spiralis)
# Test: co-IP; Caco-2 cells incubated with 10 μg/mL rTsCatL2 for 30 min, washed, lysed in RIPA lysate with inhibitors; precipitated with 2 μg anti-rTsCatL2 IgG and Protein A/G PLUS agarose at 4°C, washed 5 times with RIPA; western blot with rabbit antibodies to the cell proteins; only the target purified
binder,measurement,value
B1,binding,no binding (tested: 10 μg/mL rTsCatL2)

# Results are given in words; binding and its absence hold for the method and conditions named. Binding seen in cells or lysates may run through a third protein.
